For at least one compound, name, drawing or mass did not settle the structure.
System: HIV strain derived from an infected patient having a Y188L mutation
Experiment: PhenoSenseGT report, susceptibility analysis of patient-derived HIV
Assay type: cell-based
Details: fold change in IC50 greater than the biological cutoff (BCO) for those drugs, FIG. 3
Experimental: FIG. 3 is a sample PhenoSenseGT® report showing the results of susceptibility analyses to various nucleoside reverse transcriptase inhibitors (NRTIs), non-nucleoside reverse transcriptase inhibitors (NNRTIs), and protease inhibitors (PIs).
Drug susceptibility tests performed with resistance test vectors were carried out using packaging host and target host cells consisting of the human embryonic kidney cell line 293. Susceptibility tests were carried out with the RTV libraries by using viral particles comprising the RTV libraries to infect a host cell in which the expression of the indicator gene is measured. The amount of indicator gene (luciferase) activity detected in infected cells is used as a direct measure of “infectivity,” i.e., the ability of the virus to complete a single round of replication. Thus, drug susceptibility can be determined by plotting the amount of luciferase activity produced by patient derived viruses in the presence of varying concentrations of the antiviral drug. By identifying the concentration of drug at which luciferase activity is half-maximum, the IC50 of the virus from which patient-derived segment(s) were obtained for the antiretroviral agent can be determined. The IC50 provides a direct measure of the susceptibility of the HIV infecting the patient to the drug. […]

## Cc1cc(/C=C/C#N)cc(C)c1Nc1ccnc(Nc2ccc(C#N)cc2)n1 [rilpivirine]
  susceptibility of HIV with Y188L mutation (fold change in IC50 relative to biological cutoff): reduced susceptibility

From patent US20130274276A1, “METHODS AND COMPOSITIONS FOR DETERMINING VIRUS SUSCEPTIBILITY TO NON-NUCLEOSIDE REVERSE TRANSCRIPTASE INHIBITORS” (Laboratory Corporation of America Holdings, priority 2012, published 2013)
